Article doi:10.1101/2020.01.09.900548
No constants are given. Whether binding was seen depends on the method and setting. In cells and extracts the contact can be indirect. Some results given as binding are weak or reduced against the parent protein; the word gives no strength. Where a sequence is shown, tags or fusion partners need not be part of it.

The chains behind the UniProt entries cited, without tags or fusion partners.
UniProt Q92769, whole entry: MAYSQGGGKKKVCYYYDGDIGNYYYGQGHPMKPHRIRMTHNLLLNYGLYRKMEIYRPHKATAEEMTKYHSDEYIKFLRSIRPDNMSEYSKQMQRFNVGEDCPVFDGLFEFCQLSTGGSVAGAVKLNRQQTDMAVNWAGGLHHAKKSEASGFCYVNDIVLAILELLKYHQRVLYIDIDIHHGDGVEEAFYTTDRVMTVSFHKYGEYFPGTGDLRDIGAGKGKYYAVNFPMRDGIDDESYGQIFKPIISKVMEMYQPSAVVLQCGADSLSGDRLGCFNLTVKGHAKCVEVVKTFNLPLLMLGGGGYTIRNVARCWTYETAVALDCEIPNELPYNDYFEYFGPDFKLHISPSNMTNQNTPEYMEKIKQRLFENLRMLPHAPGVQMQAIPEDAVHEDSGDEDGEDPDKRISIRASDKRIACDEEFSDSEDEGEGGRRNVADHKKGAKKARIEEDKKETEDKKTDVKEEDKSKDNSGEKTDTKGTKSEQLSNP
UniProt Q13547, whole entry: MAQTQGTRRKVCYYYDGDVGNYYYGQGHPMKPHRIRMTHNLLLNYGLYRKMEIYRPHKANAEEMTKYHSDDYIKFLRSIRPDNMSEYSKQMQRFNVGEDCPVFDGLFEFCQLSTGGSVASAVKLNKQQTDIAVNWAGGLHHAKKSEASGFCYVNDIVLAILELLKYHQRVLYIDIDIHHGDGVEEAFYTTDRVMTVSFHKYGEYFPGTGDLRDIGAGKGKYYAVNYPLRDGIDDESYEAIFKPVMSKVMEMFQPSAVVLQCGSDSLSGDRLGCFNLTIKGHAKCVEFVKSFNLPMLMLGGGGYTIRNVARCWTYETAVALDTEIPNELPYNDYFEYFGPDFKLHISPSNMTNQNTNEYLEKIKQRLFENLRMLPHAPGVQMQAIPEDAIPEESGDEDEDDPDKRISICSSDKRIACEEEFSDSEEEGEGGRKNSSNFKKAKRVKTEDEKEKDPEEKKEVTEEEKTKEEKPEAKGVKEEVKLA

T1: FLAG-tagged ZNF704 (FLAG-ZNF704), stably expressed in MDA-MB-231 cells (human) (UniProt Q6ZNC4)
T1 sequence: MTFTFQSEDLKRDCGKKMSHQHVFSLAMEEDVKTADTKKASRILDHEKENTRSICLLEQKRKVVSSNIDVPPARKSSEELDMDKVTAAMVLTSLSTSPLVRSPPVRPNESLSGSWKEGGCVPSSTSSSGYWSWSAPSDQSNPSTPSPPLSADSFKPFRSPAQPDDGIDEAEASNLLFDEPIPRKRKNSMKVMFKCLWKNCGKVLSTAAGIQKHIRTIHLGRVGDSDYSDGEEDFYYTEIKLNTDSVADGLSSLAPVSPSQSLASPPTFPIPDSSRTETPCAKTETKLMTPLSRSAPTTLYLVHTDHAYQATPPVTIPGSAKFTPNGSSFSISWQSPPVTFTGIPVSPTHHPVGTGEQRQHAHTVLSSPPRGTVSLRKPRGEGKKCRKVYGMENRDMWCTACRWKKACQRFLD

T2: GST-fused ZNF704 (GST-ZNF704) (human) (UniProt Q6ZNC4)
T2 sequence: T1 sequence

B1: SAP130, in vitro transcribed/translated (protein, UniProt Q9H0E3 1-1048)
chain: MGPPRHPQAGEIEAGGAGGGRRLQVEMSSQQFPRLGAPSTGLSQAPSQIANSGSAGLINPAATVNDESGRDSEVSAREHMSSSSSLQSREEKQEPVVVRPYPQVQMLSTHHAVASATPVAVTAPPAHLTPAVPLSFSEGLMKPPPKPTMPSRPIAPAPPSTLSLPPKVPGQVTVTMESSIPQASAIPVATISGQQGHPSNLHHIMTTNVQMSIIRSNAPGPPLHIGASHLPRGAAAAAVMSSSKVTTVLRPTSQLPNAATAQPAVQHIIHQPIQSRPPVTTSNAIPPAVVATVSATRAQSPVITTTAAHATDSALSRPTLSIQHPPSAAISIQRPAQSRDVTTRITLPSHPALGTPKQQLHTMAQKTIFSTGTPVAAATVAPILATNTIPSATTAGSVSHTQAPTSTIVTMTVPSHSSHATAVTTSNIPVAKVVPQQITHTSPRIQPDYPAERSSLIPISGHRASPNPVAMETRSDNRPSVPVQFQYFLPTYPPSAYPLAAHTYTPITSSVSTIRQYPVSAQAPNSAITAQTGVGVASTVHLNPMQLMTVDASHARHIQGIQPAPISTQGIQPAPIGTPGIQPAPLGTQGIHSATPINTQGLQPAPMGTQQPQPEGKTSAVVLADGATIVANPISNPFSAAPAATTVVQTHSQSASTNAPAQGSSPRPSILRKKPATDGAKPKSEIHVSMATPVTVSMETVSNQNNDQPTIAVPPTAQQPPPTIPTMIAAASPPSQPAVALSTIPGAVPITPPITTIAAAPPPSVTVGGSLSSVLGPPVPEIKVKEEVEPMDIMRPVSAVPPLATNTVSPSLALLANNLSMPTSDLPPGASPRKKPRKQQHVISTEEGDMMETNSTDDEKSTAKSLLVKAEKRKSPPKEYIDEEGVRYVPVRPRPPITLLRHYRNPWKAAYHHFQRYSDVRVKEEKKAMLQEIANQKGVSCRAQGWKVHLCAAQLLQLTNLEHDVYERLTNLQEGIIPKKKAATDDDLHRINELIQGNMQRCKLVMDQISEARDSMLKVLDHKDRVLKLLNKNGTVKKVSKLKRKEKV
B2: SAP180, endogenous in MDA-MB-231 cells (protein, UniProt Q4LE39 1-1312)
chain: MKALDEPPYLTVGTDVSAKYRGAFCEAKIKTAKRLVKVKVTFRHDSSTVEVQDDHIKGPLKVGAIVEVKNLDGAYQEAVINKLTDASWYTVVFDDGDEKTLRRSSLCLKGERHFAESETLDQLPLTNPEHFGTPVIGKKTNRGRRSNHIPEEESSSSSSDEDEDDRKQIDELLGKVVCVDYISLDKKKALWFPALVVCPDCSDEIAVKKDNILVRSFKDGKFTSVPRKDVHEITSDTAPKPDAVLKQAFEQALEFHKSRTIPANWKTELKEDSSSSEAEEEEEEEDDEKEKEDNSSEEEEEIEPFPEERENFLQQLYKFMEDRGTPINKRPVLGYRNLNLFKLFRLVHKLGGFDNIESGAVWKQVYQDLGIPVLNSAAGYNVKCAYKKYLYGFEEYCRSANIEFQMALPEKVVNKQCKECENVKEIKVKEENETEIKEIKMEEERNIIPREEKPIEDEIERKENIKPSLGSKKNLLESIPTHSDQEKEVNIKKPEDNENLDDKDDDTTRVDESLNIKVEAEEEKAKSGDETNKEEDEDDEEAEEEEEEEEEEEDEDDDDNNEEEEFECYPPGMKVQVRYGRGKNQKMYEASIKDSDVEGGEVLYLVHYCGWNVRYDEWIKADKIVRPADKNVPKIKHRKKIKNKLDKEKDKDEKYSPKNCKLRRLSKPPFQTNPSPEMVSKLDLTDAKNSDTAHIKSIEITSILNGLQASESSAEDSEQEDERGAQDMDNNGKEESKIDHLTNNRNDLISKEEQNSSSLLEENKVHADLVISKPVSKSPERLRKDIEVLSEDTDYEEDEVTKKRKDVKKDTTDKSSKPQIKRGKRRYCNTEECLKTGSPGKKEEKAKNKESLCMENSSNSSSDEDEEETKAKMTPTKKYNGLEEKRKSLRTTGFYSGFSEVAEKRIKLLNNSDERLQNSRAKDRKDVWSSIQGQWPKKTLKELFSDSDTEAAASPPHPAPEEGVAEESLQTVAEEESCSPSVELEKPPPVNVDSKPIEEKTVEVNDRKAEFPSSGSNSVLNTPPTTPESPSSVTVTEGSRQQSSVTVSEPLAPNQEEVRSIKSETDSTIEVDSVAGELQDLQSEGNSSPAGFDASVSSSSSNQPEPEHPEKACTGQKRVKDAQGGGSSSKKQKRSHKATVVNNKKKGKGTNSSDSEELSAGESITKSQPVKSVSTGMKSHSTKSPARTQSPGKCGKNGDKDPDLKEPSNRLPKVYKWSFQMSDLENMTSAERITILQEKLQEIRKHYLSLKSEVASIDRRRKRLKKKERESAATSSSSSSPSSSSITAAVMLTLAEPSMSSASQNGMSVECR

How the values were obtained:
[1] = target: T1, FLAG-tagged ZNF704 (FLAG-ZNF704), stably expressed in MDA-MB-231 cells (human); assay: co-IP + SEC
[2] = target: T2, GST-fused ZNF704 (GST-ZNF704) (human); assay: pull-down

Row | Molecule | binding [1] | binding [2]
1 | HDAC2, endogenous in MDA-MB-231 cells (from UniProt Q92769 1-488) (enzyme) | binds | 
2 | HDAC1, endogenous in MDA-MB-231 cells (from UniProt Q13547 1-482) (enzyme) | binds | 
3 | B1 |  | binds
4 | B2 | binds | 
